Assay results published in PubChem BioAssay AID1347075 (National Center for Advancing Translational Sciences (NCATS), 2019).
Among all 400,000 compounds or so, about 5,500 (1.4%) were called active. The shares of active, inactive and inconclusive entries below differ from those in the screen. Calls come from the whole dose curve; as a rule, active = well fitted cell-killing curve with a large enough effect; inconclusive = small, poorly fitted or top-dose-only effect, or effect the other way; inactive = flat fitted curve, though single readings scatter. Where the call is inconclusive, the potency comes from a doubtful curve fit.

Test: qHTS assay for MDR1-selective chemotherapeutics: Primary screen using the parental adenocarcinoma cell KB-3-1; note: nearly all actives have a fitted effect of over 60% in size
Conditions: KB-3-1 viability, CellTiter-Glo ATP luminescence, 72 h; activity change, negative = cytotoxic: at 46.1 µM (top of the series)
Outline: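 KB-3-1 cells, DMEM (no phenol red) + 10% FBS; compound by pin transfer, 72 h, 37 °C. Readout: CellTiter-Glo luminescence after 10 min. Data normalized, curve-fitted.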
% is set by controls: 0 for no effect and ±100 for the full control effect; potency is the fitted concentration of half-maximal effect.

Compound	activity change, negative = cytotoxic	Potency
CN1/C(=C\C=N\NC(=O)c2cccnc2)C(C)(C)c2ccccc21	inactive: 5.31%	
CCc1ccc(OCC(=O)N2c3ccccc3CCc3ccccc32)cc1		inconclusive: 18.4 µM [cytotoxic, partial curve]
CCN1C(=O)/C(=C2/Sc3ccccc3N2CCCS(=O)(=O)O)SC1=S		inconclusive: 18.4 µM [rising, partial curve, poor fit]
COc1ccc(CCN2C(=O)C(Oc3ccccc3C)C2c2ccc3c(c2)OCO3)cc1OC (configuration not stated)		inconclusive: 32.6 µM [cytotoxic, single point]
Cc1cc(C)nc(SCC(=O)N/N=C\C(Br)=C\c2ccccc2)n1		inconclusive: 32.6 µM [rising, single point]
COc1ccc(C2=CC(c3ccc(F)cc3)n3ncc(C(=O)Nc4ccc(C)cc4)c3N2)cc1 (configuration not stated)		inconclusive: 23.1 µM [cytotoxic, single point]
Cc1nc2sc(C(c3ccco3)N3CCN(c4ccccc4F)CC3)c(O)n2n1 (configuration not stated)	inactive: 5.57%	
CCc1ccc(CNC(=O)c2sc3ncccc3c2-n2c(C)ccc2C)cc1		inconclusive: 20.6 µM [cytotoxic, single point]
Cc1ccc(-c2nc3cc(C(C)C)ccc3o2)cc1NC(=O)c1cc2ccccc2o1	inactive: 0%	
CC(NCc1ccc([N+](=O)[O-])cc1)C1COc2ccccc2O1 (configuration not stated)		inconclusive: 29.1 µM [cytotoxic, single point]
O=[N+]([O-])c1cccc(S(=O)(=O)N2CCN(c3nc(-c4ccccc4)nc4ccccc34)CC2)c1		inconclusive: 29.1 µM [rising, single point]
O=C(c1ccc(C(F)(F)F)cc1)N1CCC(=O)N(C(COCc2ccc(Cl)cc2)Cc2ccccc2)CC1 (configuration not stated)		inconclusive: 18.4 µM [cytotoxic, single point]
CN(/N=C/c1c[nH]c2ccccc12)c1cnn(-c2ccc(F)c(Cl)c2)c(=O)c1Cl	inactive: -2.92%	
CC(=O)Nc1ccc(C(=O)CSc2cc(C)c3cccc(C)c3n2)cc1		inconclusive: 29.1 µM [cytotoxic, single point]
CCc1ccc(C2c3c(-c4ccccc4O)n[nH]c3C(=O)N2Cc2ccncc2)cc1 (configuration not stated)		inconclusive: 20.6 µM [cytotoxic, single point]
CC1=CC(C)(C)Nc2ccc(OC(=O)CCN3C(=O)c4ccccc4C3=O)cc21		inconclusive: 16.4 µM [cytotoxic, single point]
CCOC(=O)N1CCN(C(=O)C2CCN(S(=O)(=O)c3ccc(C)cc3)CC2)CC1	inactive: 8.19%	
CCC1=Nc2cc(C(=O)NCC3CCCO3)ccc2Sc2ccc(Br)cc21 (configuration not stated)		active: 6.51 µM
Cc1ccc2c(c1)C1CN(C)CCC1N2C(=S)NC(=O)c1ccc(Br)cc1 (configuration not stated)		inconclusive: 29.1 µM [cytotoxic, single point]
COc1ccc(Cc2nc3ccc(C(=O)N4C[C@@H](C)O[C@@H](C)C4)cc3o2)cc1OC		inconclusive: 25.9 µM [cytotoxic, partial curve, poor fit]
CCOC(=O)[C@]12CCCC=C1N(Cc1ccc(Cl)cc1Cl)C(=O)[C@H](CC(=O)NCCCCc1ccccc1)C2		inconclusive: 16.4 µM [cytotoxic, single point]
Cc1ccc(Cl)cc1N1CCN(C(=O)c2cnc(N3CCOCC3)c3ccccc23)CC1		inconclusive: 16.4 µM [cytotoxic, single point]
CN(c1ccccc1)S(=O)(=O)c1cccc(NC(=O)c2ccc(Cl)c([N+](=O)[O-])c2)c1		active: 20.6 µM

Compound	activity change, negative = cytotoxic	Potency
C=CCNCCCCOc1ccccc1-c1ccccc1	inactive: -7.42%	
COC(=O)c1cccc(NC(=O)/C=C/c2ccc3c(c2)OCO3)c1		active: 5.8 µM
CCc1ccc2[nH]c(=O)c(CN(Cc3ccccc3)Cc3nnnn3C(C)(C)C)cc2c1		inconclusive: 7.31 µM [cytotoxic, partial curve, poor fit]
COc1ccc(CNCC(O)(c2ccccc2)c2ccccc2)cc1	inactive: 1.14%	
CCOC(=O)C(Cc1nc(OCc2ccccc2)cc(OCc2ccccc2)n1)=NO		active: 20.6 µM
COc1ccc(S(=O)(=O)NC(C)C)cc1C(=O)N1CCOCC1	inactive: 3.34%	
COc1ccccc1C(=O)NC(=S)N1CCCc2ccccc21	inactive: 9.86%	
Cc1[nH]n(-c2ccc([N+](=O)[O-])cc2)c(=O)c1C=NCCN1CCN(C(=O)C(C)C)CC1		inconclusive: 9.2 µM [cytotoxic, partial curve]
CCOC(=O)C(Cc1ccccc1)NC(=O)CCc1nnc2ccc(N3CCCC3)nn12 (configuration not stated)	inactive: 21.1%	
CN(CCc1ccccn1)Cc1ccc(Cl)c(Cl)c1	inactive: 10.3%	
Cc1cc(C)c(NC(=O)CSc2nc3ccc(NC(=O)CSc4nnnn4-c4ccccc4)cc3s2)c(C)c1		inconclusive: 23.1 µM [cytotoxic, single point]
Clc1cccc(N2CCN(c3ncnc4c3nc3n4CCCCC3)CC2)c1		active: 13 µM
COc1cc(/C=C/c2ccc3cccc(OC)c3n2)c(O)c([N+](=O)[O-])c1		inconclusive: 29.1 µM [cytotoxic, single point]
Cc1ccc(-c2nnc3ccc(SCC(=O)OCc4ccccc4)nn23)cc1		inconclusive: 9.2 µM [rising, partial curve]
C[C@H](c1ccccc1)N1C[C@H](COCc2ccccc2)Oc2cc(N3CC[C@@H](N(C)C)C3)ccc2S1(=O)=O		inconclusive: 32.6 µM [cytotoxic, single point]
O=C(Cn1c(=O)oc2cc(S(=O)(=O)N3CCCCC3)ccc21)Nc1cccc(Cl)c1	inactive: 1.8%	
CC(CCc1ccccc1)N(C)CC(O)c1cccc([N+](=O)[O-])c1 (configuration not stated)	inactive: -0.529%	
CCCCN1C(=O)c2[nH]nc(-c3ccccc3O)c2C1c1cccc(OCc2ccccc2)c1 (configuration not stated)		inconclusive: 20.6 µM [cytotoxic, single point]
C=CCSc1nsc(NC(=O)Nc2cccc(C(C)=O)c2)n1		inconclusive: 29.1 µM [cytotoxic, single point]
COc1ccc(/C=C/CN2CCC(C(=O)NC(c3ccc(F)cc3)c3ccc4ccccc4n3)CC2)cc1 (configuration not stated)		inconclusive: 29.1 µM [cytotoxic, single point]
CC1CC(C)CN(C(=O)c2cc3cc(Br)cc(Br)c3o2)C1 (configuration not stated)		inconclusive: 20.6 µM [cytotoxic, single point]
O=C(Nc1cnn(Cc2ccc(Cl)c(Cl)c2)c1)C12CC3CC(CC(C3)C1)C2		inconclusive: 29.1 µM [cytotoxic, single point]
Cc1cccc[n+]1CC(=O)/C=C1\N(C)c2ccccc2C1(C)C		active: 4.11 µM

Compound	activity change, negative = cytotoxic	Potency
C[C@@H]1CCC[C@]2(O[C@H](CCO)C[C@H](O)[C@H]2O)O1	inactive: -0.375%	
CCOc1ccc(CCN2C(=S)N([C@@H](Cc3ccc(O)cc3)CN3CCCC3CN3C(=S)NC[C@@H]3Cc3ccc(O)cc3)C[C@@H]2CC(C)C)cc1 (some centres not stated)		inconclusive: 16.4 µM [cytotoxic, single point]
O=C(NC(=S)NC1CC1)c1cccnc1	inactive: 23.4%	
CC1=C/C(=N\NC(=O)c2ccccc2)CC1	inactive: -0.456%	
CC1(C(=O)Nc2ccccc2F)CCN1C(=O)Cc1cc(F)ccc1F (configuration not stated)	inactive: -0.0169%	
CCN(CC)CCN1C(=O)/C(=C\c2ccc(Cl)c([N+](=O)[O-])c2)SC1=Nc1ccc(OC)cc1		inconclusive: 32.6 µM [cytotoxic, single point]
CCn1c(=O)oc2cc(NC(=O)CCl)ccc21		inconclusive: 18.4 µM [cytotoxic, single point]
O=C(C(O)c1ccccc1)N1CCN(S(=O)(=O)c2ccc(OC(F)(F)F)cc2)CC1 (configuration not stated)	inactive: -4.84%	
CCOc1ccc(OCC)c(NC(=O)CN2CCN(c3cccc(C)c3)C(C)C2)c1 (configuration not stated)		inconclusive: 23.1 µM [cytotoxic, single point]
CC(C)COC(=O)/C(C#N)=C\c1ccc(-c2ccccc2Cl)o1		inconclusive: 25.9 µM [rising, single point]
O=C(/C=C/[C@H]1O[C@@H](n2cnc3c(NC(=O)c4ccccc4)ncnc32)[C@H](O)[C@@H]1O)NCc1ccco1	inactive: 0.0302%	
O=C(NN=Cc1ccc2c(c1)CCC2)c1ccccc1[N+](=O)[O-]		inconclusive: 32.6 µM [cytotoxic, single point]
Cc1[nH]n(-c2ccccc2)c(=O)c1C(=O)c1ccc(Cl)cc1		inconclusive: 20.6 µM [cytotoxic, single point]
CNc1cc(C(=O)O)nc2ccccc12		inconclusive: 29.1 µM [cytotoxic, partial curve, poor fit]
CCOc1ccc(-c2nc(CSCC(=O)N3CCN(c4cccc(C(F)(F)F)c4)CC3)c(C)o2)cc1		inconclusive: 29.1 µM [cytotoxic, single point]
Cc1cc2c3c(c1)C1(C(=O)N3C(C)(C)CC2C)C(C#N)=C(N)Oc2cc(O)ccc21 (configuration not stated)		inconclusive: 17.8 µM [cytotoxic, single point]
CCN(CC)C(=O)c1sc(NC(=O)c2ccc(C)c([N+](=O)[O-])c2)c(C#N)c1C		inconclusive: 16.4 µM [cytotoxic, partial curve]
Cc1nc(C(F)(F)F)ccc1C(=O)Nc1ccc(C(F)(F)F)cn1	inconclusive: -0.63%	
O=C(CSc1ncc(S(=O)(=O)c2ccc(Br)cc2)c(=O)[nH]1)NCc1ccc(Cl)cc1	inactive: 4.45%	
C[C@H](CO)N1C[C@H](C)[C@@H](CN(C)C(=O)Nc2ccc(C(F)(F)F)cc2)Oc2ccc(NC(=O)C3CCCCC3)cc2C1=O	inactive: 0%	
C/C(=N\Nc1cc(Cl)nc(C)n1)c1ccccc1		inconclusive: 29.1 µM [cytotoxic, single point]

Shown as a markdown table: entries from further up.

| Compound | activity change, negative = cytotoxic | Potency |
| --- | --- | --- |
| CCOc1ccc(OCC)c(NC(=O)CN2CCN(c3cccc(C)c3)C(C)C2)c1 (configuration not stated) |  | inconclusive: 23.1 µM [cytotoxic, single point] |
| CC(C)COC(=O)/C(C#N)=C\c1ccc(-c2ccccc2Cl)o1 |  | inconclusive: 25.9 µM [rising, single point] |
| O=C(/C=C/[C@H]1O[C@@H](n2cnc3c(NC(=O)c4ccccc4)ncnc32)[C@H](O)[C@@H]1O)NCc1ccco1 | inactive: 0.0302% |  |
| O=C(NN=Cc1ccc2c(c1)CCC2)c1ccccc1[N+](=O)[O-] |  | inconclusive: 32.6 µM [cytotoxic, single point] |
| Cc1[nH]n(-c2ccccc2)c(=O)c1C(=O)c1ccc(Cl)cc1 |  | inconclusive: 20.6 µM [cytotoxic, single point] |
